Measurements from paper PMC9234046.
Like-named read-outs stand apart in the source and are kept apart here. No constants are given. Whether binding was seen depends on the method and setting. Binding seen in cells or lysates may run through a third protein. Some entries that bind do so weakly or less than the wild type. Where a sequence is shown, tags or fusion partners need not be part of it.

Chains of the proteins cited; added tags and fusions are not shown.
UniProt P16220: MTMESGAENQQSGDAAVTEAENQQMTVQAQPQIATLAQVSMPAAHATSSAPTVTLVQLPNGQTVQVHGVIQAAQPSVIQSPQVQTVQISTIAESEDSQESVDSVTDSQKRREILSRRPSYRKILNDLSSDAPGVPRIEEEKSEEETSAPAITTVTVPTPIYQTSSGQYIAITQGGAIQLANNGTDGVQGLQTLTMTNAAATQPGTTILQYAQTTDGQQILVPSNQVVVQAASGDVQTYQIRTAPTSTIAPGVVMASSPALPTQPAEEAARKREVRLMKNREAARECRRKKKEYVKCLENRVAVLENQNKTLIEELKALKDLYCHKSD

T1: tuftelin 1 (TUFT1)-Flag (human) (UniProt Q9NNX1)
T1 sequence: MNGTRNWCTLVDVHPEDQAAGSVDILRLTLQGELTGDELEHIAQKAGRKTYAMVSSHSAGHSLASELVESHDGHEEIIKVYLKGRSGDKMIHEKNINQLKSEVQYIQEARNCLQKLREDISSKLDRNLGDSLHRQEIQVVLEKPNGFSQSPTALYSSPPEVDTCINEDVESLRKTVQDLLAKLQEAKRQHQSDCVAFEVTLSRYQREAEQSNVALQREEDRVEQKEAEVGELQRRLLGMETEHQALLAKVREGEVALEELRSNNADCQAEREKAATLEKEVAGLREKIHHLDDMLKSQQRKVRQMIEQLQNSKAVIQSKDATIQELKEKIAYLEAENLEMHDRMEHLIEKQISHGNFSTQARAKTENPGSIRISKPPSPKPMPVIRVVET


Experiments:
[1] = target: T1, tuftelin 1 (TUFT1)-Flag (human); assay: co-IP; anti-Flag antibody crosslinked to magnetic beads, lysate of TUFT1-Flag-overexpressing Huh7 cells, 1 hour at 4°C, PBS washes, western blot
[2] = target: T1, tuftelin 1 (TUFT1)-Flag (human); assay: as above; remark: listed apart in the source

| Molecule | binding [1] | binding [2] |
| --- | --- | --- |
| Cyclic AMP-responsive element binding protein 1 (CREB1) (from UniProt P16220 1-327) | binds | – |
| zyxin (ZYX) (protein, UniProt Q15942 1-572) MAAPRPSPAISVSVSAPAFYAPQKKFGPVVAPKPKVNPFRPGDSEPPPAPGAQRAQMGRVGEIPPPPPEDFPLPPPPLAGDGDDAEGALGGAFPPPPPPIEESFPPAPLEEEIFPSPPPPPEEEGGPEAPIPPPPQPREKVSSIDLEIDSLSSLLDDMTKNDPFKARVSSGYVPPPVATPFSSKSSTKPAAGGTAPLPPWKSPSSSQPLPQVPAPAQSQTQFHVQPQPQPKPQVQLHVQSQTQPVSLANTQPRGPPASSPAPAPKFSPVTPKFTPVASKFSPGAPGGSGSQPNQKLGHPEALSAGTGSPQPPSFTYAQQREKPRVQEKQHPVPPPAQNQNQVRSPGAPGPLTLKEVEELEQLTQQLMQDMEHPQRQNVAVNELCGRCHQPLARAQPAVRALGQLFHIACFTCHQCAQQLQGQQFYSLEGAPYCEGCYTDTLEKCNTCGEPITDRMLRATGKAYHPHCFTCVVCARPLEGTSFIVDQANRPHCVPDYHKQYAPRCSVCSEPIMPEPGRDETVRVVALDKNFHMKCYKCEDCGKPLSIEADDNGCFPLDGHVLCRKCHTARAQT | – | binds |
